Values of other authors, collected in patent US8951969B2, “Compositions and methods for treating centrally mediated nausea and vomiting” (Helsinn Healthcare S.A., priority 2009, dated 2015).
Read-outs that look alike come from different tables or passages of the source. At least one structure is not confirmed: it was looked up by name or label, or the drawing left a doubt.

Test system: CINV
Conditions: cited from earlier work

For C[C@@H]1C[C@H]2[C@@H]3CCC4=CC(=O)C=C[C@]4(C)[C@@]3(F)[C@@H](O)C[C@]2(C)[C@@]1(O)C(=O)CO [dexamethasone], the minimum effective dose (CINV induced by highly emetogenic chemotherapy, orally or by injection on day one) is given as 20 mg, the minimum effective dose (CINV induced by highly emetogenic chemotherapy, orally or by injection on days two, three and four) is given as “sixteen” and the minimum effective dose (CINV induced by moderately emetogenic chemotherapy, orally or by injection on day one) is given as 20 mg.
